From PubChem BioAssay AID540276 (National Center for Advancing Translational Sciences (NCATS), 2011)
Among all 300,000 compounds or so, about 5,400 (1.8%) were called active. This list was built around the results that the source calls inconclusive (neither active nor inactive); the mix of calls is not that of the screen. Calls come from the whole dose curve; tested in HEK293 cells. Potencies of inconclusive entries are doubtful fits and often do not repeat.

Test: qHTS for inhibitors of binding or entry into cells for Marburg Virus
Settings: Marburg virus pseudotyped entry inhibition, cell reporter; series mostly up to 37.8 µM
Potency is the fitted concentration of half-maximal effect.

**Q.** For `COc1ccc(C(C(=O)NCc2ccc(F)cc2)N(C(=O)c2csnn2)C2CC2)cc1` (centres undefined), which Potency is on record?
**A.** The Potency was inconclusive: 35.5 µM [inhibitor, single point].

**Q.** For `CC(C)(C)SCCNC(=O)c1ccccc1`, which Potency is on record?
**A.** Its Potency is “inactive”.

**Q.** Which Potency does the source give for `Cc1cc(C)nc(N(C#N)CCOc2ccc(Cl)cc2)n1` here?
**A.** The Potency was inconclusive: 12.6 µM [inhibitor, partial curve, poor fit].

**Q.** Which Potency does the source give for `Cc1ccccc1NC(=O)c1cc2c(-c3ccccc3)nn(-c3ccccc3)c2s1` here?
**A.** Its Potency is “inactive”.

**Q.** Which Potency does the source give for `CC(C)Sc1nc(N)nc2c1ncn2C1OC(CO)C(O)C1O` (centres undefined) here?
**A.** Its Potency is inconclusive: 3.16 µM [inhibitor, partial curve, poor fit].

**Q.** For `CCCCCCc1nc2ccccc2c(=O)n1N`, which Potency is on record?
**A.** Its Potency is inconclusive: 8.91 µM [activator, partial curve, poor fit].

**Q.** Which Potency does the source give for `CCOC(=O)/C=C/C(=O)OCC(=O)Nc1ccc(OC)c(Cl)c1` here?
**A.** Its Potency is “inactive”.

**Q.** Which Potency does the source give for `O=[N+]([O-])c1cc(Cl)ccc1N1CCN(c2cccc(C(F)(F)F)c2)CC1` here?
**A.** The Potency was “inactive”.

**Q.** For `Cc1ccc(OCCn2cc(C(=O)c3cccs3)c3ccccc32)cc1`, which Potency is on record?
**A.** The Potency was inconclusive: 3.16 µM [inhibitor, single point].

**Q.** For `COCc1cc(C)nc2sc(C(=O)Nc3ccccc3O)c(N)c12`, which Potency is on record?
**A.** The Potency was inconclusive: 31.6 µM [activator, single point].

**Q.** Which Potency does the source give for `O=C(Nc1ccc(Oc2ccccc2)nc1)C1CCCCN1Cc1cccc(O)c1` (centres undefined) here?
**A.** The Potency was inconclusive: 10 µM [inhibitor, partial curve, poor fit].

**Q.** For `O=C(CN1C(=O)c2ccc([N+](=O)[O-])cc2C1=O)NCc1ccco1`, which Potency is on record?
**A.** Its Potency is inconclusive: 11.2 µM [activator, partial curve].

**Q.** For `COC(=O)c1ccccc1NC(=O)Nc1cnccn1`, which Potency is on record?
**A.** The Potency was “inactive”.

**Q.** For `O=C(COC(=O)CC1CC2CCC1C2)NCc1ccc(Cl)cc1` (centres undefined), which Potency is on record?
**A.** The Potency was inconclusive: 0.316 µM [inhibitor, full curve, poor fit].

**Q.** Which Potency does the source give for `Cn1c(SCC(=O)N2CCN(c3ccccc3)CC2)nnc1-c1cc2ccccc2o1` here?
**A.** Its Potency is inconclusive: 18.3 µM [inhibitor, single point].

**Q.** For `CC(C)C(=O)NC(Nc1cccc2cccnc12)C(Cl)(Cl)Cl` (centres undefined), which Potency is on record?
**A.** Its Potency is “inactive”.

**Q.** Which Potency does the source give for `COc1cc(CCNC(=O)CCCn2c(=O)c3cccn3c3cccnc32)cc(OC)c1OC` here?
**A.** The Potency was inconclusive: 35.5 µM [inhibitor, single point].

**Q.** For `CCOC(=O)c1[nH]c(C)c(C)c1C`, which Potency is on record?
**A.** The Potency was “inactive”.

**Q.** Which Potency does the source give for `COc1ccccc1-c1c(C)nn2c(-c3ccccc3)cc(-c3ccccc3)nc12` here?
**A.** The Potency was inconclusive: 10 µM [inhibitor, partial curve, poor fit].

**Q.** Which Potency does the source give for `O=C(NCC(=O)N1CCN(Cc2c(F)cccc2Cl)CC1)c1cccc(Cl)c1` here?
**A.** Its Potency is inconclusive: 35.5 µM [inhibitor, single point].

**Q.** For `CCOc1ccc(C2=NC(c3ccncc3)=Nc3ccc(C)cc3N2)cc1OCC`, which Potency is on record?
**A.** The Potency was inconclusive: 3.55 µM [inhibitor, partial curve, poor fit].

**Q.** For `Fc1cccc(/C=N/Nc2ccc3ccccc3n2)c1`, which Potency is on record?
**A.** Its Potency is active: 6.31 µM.

**Q.** With `CC(=O)Nc1ccc(N=Nc2ccc(O)cc2)cc1` as the compound, how does the Potency read?
**A.** The Potency was inconclusive: 10 µM [inhibitor, partial curve, poor fit].

**Q.** Which Potency does the source give for `COc1ccc(-c2noc(CCCC(=O)Nc3cccc(Cl)c3C)n2)cc1` here?
**A.** The Potency was inconclusive: 1.12 µM [inhibitor, full curve].

**Q.** With `CC(NC(=O)/C=C/c1ccc(Br)cc1)c1ccccc1` (centres undefined) as the compound, how does the Potency read?
**A.** The Potency was inconclusive: 2.82 µM [inhibitor, single point].

**Q.** Which Potency does the source give for `C=CCn1c(C)csc1=Nc1ccccc1C` here?
**A.** Its Potency is “inactive”.

**Q.** With `Cc1nc2c(C(=O)N3CCOCC3)cnn2c(C)c1Cc1cccc(Cl)c1` as the compound, how does the Potency read?
**A.** Its Potency is “inactive”.

**Q.** For `CCc1ccc(NC(=O)CCc2c(C)nc3nc(-c4cc(OC)cc(OC)c4)nn3c2C)cc1`, which Potency is on record?
**A.** The Potency was inconclusive: 6.31 µM [activator, single point].

**Q.** Which Potency does the source give for `O=[N+]([O-])C(=C1SCCS1)C(=C(Cl)Cl)N1CCCCC1` here?
**A.** Its Potency is inconclusive: 14.1 µM [inhibitor, partial curve, poor fit].

**Q.** With `CCN1/C(=C(\O)c2ccccc2)C(=O)c2ccccc2S1(=O)=O` as the compound, how does the Potency read?
**A.** The Potency was inconclusive: 22.4 µM [inhibitor, partial curve, poor fit].

**Q.** Which Potency does the source give for `CSc1ccc(Oc2cccc3c2S(=O)(=O)N([C@H](C)c2ccccc2)C[C@@H](COCc2ccccc2)O3)cc1C` here?
**A.** The Potency was inconclusive: 3.53 µM [inhibitor, full curve].

**Q.** For `Cc1ccc(CNC(=O)C(Cc2ccccc2)NS(=O)(=O)c2cccs2)cc1` (centres undefined), which Potency is on record?
**A.** The Potency was inconclusive: 13 µM [inhibitor, partial curve, poor fit].

**Q.** With `Cc1nc2c(C(=O)NCCC(C)C)c[nH]n2c(=O)c1Cc1ccccc1F` as the compound, how does the Potency read?
**A.** The Potency was inconclusive: 6.51 µM [inhibitor, single point].

**Q.** Which Potency does the source give for `CCc1nnc(NC(=O)CSc2nnc(-c3ccco3)n2C)s1` here?
**A.** Its Potency is “inactive”.

**Q.** Which Potency does the source give for `COc1ccc2ccccc2c1/C=N/NC(=S)NCCN1CCOCC1` here?
**A.** Its Potency is inconclusive: 7.94 µM [inhibitor, partial curve, poor fit].

**Q.** With `CCOc1cc(N2CCOCC2)c(OCC)cc1NC(C)C(=O)N1CCN(CC)CC1` (centres undefined) as the compound, how does the Potency read?
**A.** The Potency was “inactive”.

**Q.** Which Potency does the source give for `Cc1cc(N2CCN(C)CC2)ccc1NC(=O)c1ccc(-c2ccc(Cl)cc2)o1` here?
**A.** Its Potency is inconclusive: 15.8 µM [inhibitor, partial curve, poor fit].

**Q.** For `CCN1CCN(C(c2ccc(F)cc2)c2nnnn2Cc2cccs2)CC1` (centres undefined), which Potency is on record?
**A.** The Potency was inconclusive: 22.4 µM [inhibitor, single point].

**Q.** For `O=C(NC(=S)Nc1ccc(N2CCOCC2)cc1)c1ccco1`, which Potency is on record?
**A.** Its Potency is inconclusive: 1.84 µM [activator, full curve].

**Q.** Which Potency does the source give for `CC(=O)Nc1cnc(NC(=O)c2cccc(F)c2)cc1C` here?
**A.** The Potency was “inactive”.

**Q.** With `O=C(CCl)N(c1ccc(Cl)cc1)c1c[nH]c2ccccc12` as the compound, how does the Potency read?
**A.** Its Potency is inconclusive: 35.5 µM [inhibitor, partial curve, poor fit].

**Q.** With `COc1ccccc1N1CCN(C(c2cc3cc(C)ccc3[nH]c2=O)c2nnnn2C2CCCC2)CC1` (centres undefined) as the compound, how does the Potency read?
**A.** Its Potency is inconclusive: 8.2 µM [inhibitor, partial curve, poor fit].

**Q.** Which Potency does the source give for `Cc1[nH]c(C)c(S(=O)(=O)NCc2ccc(Cl)cc2)c1C(=O)N1CCCC1` here?
**A.** Its Potency is inconclusive: 35.5 µM [inhibitor, single point].

**Q.** With `O=C(Nc1cccc(S(=O)(=O)NCc2ccco2)c1)c1cc(-c2ccc(F)cc2)nc2ccccc12` as the compound, how does the Potency read?
**A.** Its Potency is inconclusive: 14.1 µM [inhibitor, single point].

**Q.** For `CCOC(=O)c1c(C)[nH]c(C)c1C(=O)COC(=O)COc1ccc(Cl)c(C)c1`, which Potency is on record?
**A.** The Potency was inconclusive: 0.112 µM [inhibitor, full curve, poor fit].

**Q.** For `CN(Cc1ccc(F)cc1)C(=O)c1cccc(S(=O)(=O)N2CCN(c3ccccc3)CC2)c1`, which Potency is on record?
**A.** The Potency was inconclusive: 35.5 µM [inhibitor, single point].

**Q.** Which Potency does the source give for `Cc1sc(NC(=O)C2C3C=CC(C3)C2C(=O)O)c(C(N)=O)c1-c1ccc(C(C)C)cc1` (centres undefined) here?
**A.** The Potency was inconclusive: 1.41 µM [activator, partial curve, poor fit].

**Q.** Which Potency does the source give for `CC1CC(C)CN(CC(=O)Nc2ccc3c(c2)OCCO3)C1` (centres undefined) here?
**A.** The Potency was inconclusive: 29.1 µM [inhibitor, single point].

**Q.** Which Potency does the source give for `Cc1ccc2cc(CN(C(=O)c3ccco3)c3cccc(C)c3C)c(=O)[nH]c2c1` here?
**A.** The Potency was inconclusive: 7.08 µM [inhibitor, full curve, poor fit].

**Q.** For `Cc1ccsc1C(=O)C1CCCN(Cc2cn(C)nc2C)C1` (centres undefined), which Potency is on record?
**A.** Its Potency is “inactive”.

**Q.** With `COc1cccc([C@@H]2Oc3ccc(OC)cc3C(=O)[C@@H]2OC(=O)N[C@H]2CCCc3ccccc32)c1` as the compound, how does the Potency read?
**A.** Its Potency is inconclusive: 0.168 µM [activator, full curve, poor fit].

**Q.** For `Cc1[nH]n(-c2ccccc2)c(=O)c1/C=N\NC(=O)C1COc2ccccc2O1` (centres undefined), which Potency is on record?
**A.** Its Potency is inconclusive: 11.2 µM [inhibitor, partial curve].

**Q.** Which Potency does the source give for `CC(C)c1nnc(NC(=O)c2cccc(NC(=O)C(F)(F)F)c2)s1` here?
**A.** The Potency was inconclusive: 1.58 µM [activator, partial curve, poor fit].

**Q.** For `COc1ccc(CSc2nc3ccncc3n2CC(=O)Nc2cc(C)cc(C)c2)cc1`, which Potency is on record?
**A.** Its Potency is inconclusive: 0.794 µM [activator, full curve, poor fit].

**Q.** With `COCCN1C(=O)C(=O)/C(=C(/O)c2ccc(S(=O)(=O)N3CCCCC3)cc2)C1c1ccc(OC)c(OC)c1` (centres undefined) as the compound, how does the Potency read?
**A.** Its Potency is inconclusive: 35.5 µM [activator, partial curve, poor fit].

**Q.** Which Potency does the source give for `C=CCNC(=O)CCCOc1ccc(C)cc1` here?
**A.** The Potency was inconclusive: 10 µM [activator, partial curve, poor fit].

**Q.** With `Cc1ccc(C(=O)NC(=C(Cl)Cl)S(=O)(=O)c2ccccc2)cc1` as the compound, how does the Potency read?
**A.** Its Potency is inconclusive: 29.1 µM [inhibitor, single point].

**Q.** For `CCOC(=O)CCC(NC(=O)c1ccc(CNc2nc3cc(C(F)(F)F)ccc3nc2C(=O)OCC)cc1)C(=O)OCC` (centres undefined), which Potency is on record?
**A.** The Potency was “inactive”.

**Q.** With `O=S(=O)(CCN1C=CC(C(F)(F)F)=NCC1)c1ccc(Cl)cc1Cl` as the compound, how does the Potency read?
**A.** Its Potency is inconclusive: 3.16 µM [inhibitor, partial curve, poor fit].

**Q.** With `COc1ccc(C2=CC(c3sccc3C)n3nnnc3N2)cc1` (centres undefined) as the compound, how does the Potency read?
**A.** The Potency was inconclusive: 5.62 µM [activator, single point].

**Q.** For `O=C(CCCCC(=O)Sc1ccccc1)Sc1ccccc1`, which Potency is on record?
**A.** The Potency was inconclusive: 5.62 µM [inhibitor, single point].

**Q.** Which Potency does the source give for `O=C(c1ccc(-c2ccccc2Cl)o1)N1CCCCCCC1` here?
**A.** The Potency was inconclusive: 35.5 µM [inhibitor, single point].

**Q.** For `COc1ccc(OC)c(N2Cc3ccccc3C2=N)c1`, which Potency is on record?
**A.** The Potency was inconclusive: 11.2 µM [inhibitor, partial curve, poor fit].

**Q.** Which Potency does the source give for `Cn1cc(CNC(=O)c2cc(COc3ccc4c(c3)CCCC4)on2)cn1` here?
**A.** The Potency was “inactive”.
